For one substance, binding results are on record in article PMC5441866.

Chains of the proteins cited; added tags and fusions are not shown. Residues count along the entry.
UniProt Q9NYU2, residues 43-1555: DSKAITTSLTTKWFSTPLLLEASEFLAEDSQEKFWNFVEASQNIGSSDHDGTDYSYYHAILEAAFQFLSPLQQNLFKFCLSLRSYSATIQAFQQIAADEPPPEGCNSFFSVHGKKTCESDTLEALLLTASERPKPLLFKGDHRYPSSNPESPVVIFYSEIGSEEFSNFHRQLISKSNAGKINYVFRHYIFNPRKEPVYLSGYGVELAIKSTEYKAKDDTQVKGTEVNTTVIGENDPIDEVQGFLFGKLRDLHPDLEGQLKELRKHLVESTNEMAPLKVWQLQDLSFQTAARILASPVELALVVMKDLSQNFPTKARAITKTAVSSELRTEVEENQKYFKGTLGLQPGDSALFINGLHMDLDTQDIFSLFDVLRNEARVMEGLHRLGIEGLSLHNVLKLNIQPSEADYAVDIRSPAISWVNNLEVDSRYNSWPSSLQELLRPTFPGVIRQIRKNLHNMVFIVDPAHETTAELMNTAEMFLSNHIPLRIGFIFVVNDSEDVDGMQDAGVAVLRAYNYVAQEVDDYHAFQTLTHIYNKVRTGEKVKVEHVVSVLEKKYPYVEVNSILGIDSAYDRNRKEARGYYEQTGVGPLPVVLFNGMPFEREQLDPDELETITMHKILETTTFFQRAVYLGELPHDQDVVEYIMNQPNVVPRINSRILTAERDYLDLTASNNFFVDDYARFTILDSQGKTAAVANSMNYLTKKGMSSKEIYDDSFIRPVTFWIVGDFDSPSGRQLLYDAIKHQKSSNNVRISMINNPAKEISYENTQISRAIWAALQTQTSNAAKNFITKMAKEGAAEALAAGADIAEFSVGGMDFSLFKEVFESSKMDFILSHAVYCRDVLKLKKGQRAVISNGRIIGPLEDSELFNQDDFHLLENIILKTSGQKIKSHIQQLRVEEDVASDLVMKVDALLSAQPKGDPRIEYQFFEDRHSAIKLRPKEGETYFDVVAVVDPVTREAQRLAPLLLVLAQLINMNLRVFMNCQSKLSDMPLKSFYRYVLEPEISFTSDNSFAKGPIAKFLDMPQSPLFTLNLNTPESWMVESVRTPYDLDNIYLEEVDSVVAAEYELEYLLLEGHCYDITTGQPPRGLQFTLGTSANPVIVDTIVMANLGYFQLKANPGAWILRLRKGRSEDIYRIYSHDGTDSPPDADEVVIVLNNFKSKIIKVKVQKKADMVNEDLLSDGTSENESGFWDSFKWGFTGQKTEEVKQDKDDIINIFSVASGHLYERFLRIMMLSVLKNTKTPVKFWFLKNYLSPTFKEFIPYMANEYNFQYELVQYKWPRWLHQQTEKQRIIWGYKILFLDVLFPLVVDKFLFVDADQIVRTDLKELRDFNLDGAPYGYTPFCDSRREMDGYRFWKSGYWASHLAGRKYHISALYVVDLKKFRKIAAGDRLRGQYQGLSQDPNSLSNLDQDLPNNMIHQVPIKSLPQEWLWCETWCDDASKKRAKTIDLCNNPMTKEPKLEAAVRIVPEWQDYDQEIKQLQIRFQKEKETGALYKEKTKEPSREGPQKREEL

No constants are given. Whether binding was seen depends on the method and setting. In cells and extracts the contact can be indirect.

This test addresses tapasin (human (endogenous in KBM-7 and HeLaM)) (UniProt O15533). The experiment in a line: co-IP; tapasin precipitated (Pasta1) from IFN-γ-treated KBM-7 or HeLaM, HeLaM^KO, HeLaM^KOTAPBPR^WT and HeLaM^KOTAPBPR^C94A cells (with or without shUGT1), 1% digitonin TBS with 2.5 mM CaCl2, 4°C; western blot or Cy5 total protein quantification. In general terms: Immunoblotting shows a protein as a band on a membrane.

In the case of “UDP-glucose:glycoprotein glucosyltransferase 1 (from UniProt Q9NYU2 43-1555) (enzyme)”, the binding result is on record as “no binding”.
